Assay results taken from PMC2909203.
These are yes or no findings as the source states them, for the method shown. Binding seen in cells or lysates may run through a third protein. Some binding calls cover weakened binding; strength is not graded here.

Protein sequences, listed by entry. Tags and fused reporters are not part of them. Lines headed by an entry give the natural chain unless they say otherwise; changes in a name come on top.
UniProt Q8VE70: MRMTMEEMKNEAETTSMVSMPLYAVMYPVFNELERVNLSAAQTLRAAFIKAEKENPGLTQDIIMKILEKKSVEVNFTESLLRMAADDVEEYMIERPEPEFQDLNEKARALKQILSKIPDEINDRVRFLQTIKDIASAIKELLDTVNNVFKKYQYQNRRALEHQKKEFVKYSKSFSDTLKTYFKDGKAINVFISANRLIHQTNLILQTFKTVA
UniProt Q6S5J6: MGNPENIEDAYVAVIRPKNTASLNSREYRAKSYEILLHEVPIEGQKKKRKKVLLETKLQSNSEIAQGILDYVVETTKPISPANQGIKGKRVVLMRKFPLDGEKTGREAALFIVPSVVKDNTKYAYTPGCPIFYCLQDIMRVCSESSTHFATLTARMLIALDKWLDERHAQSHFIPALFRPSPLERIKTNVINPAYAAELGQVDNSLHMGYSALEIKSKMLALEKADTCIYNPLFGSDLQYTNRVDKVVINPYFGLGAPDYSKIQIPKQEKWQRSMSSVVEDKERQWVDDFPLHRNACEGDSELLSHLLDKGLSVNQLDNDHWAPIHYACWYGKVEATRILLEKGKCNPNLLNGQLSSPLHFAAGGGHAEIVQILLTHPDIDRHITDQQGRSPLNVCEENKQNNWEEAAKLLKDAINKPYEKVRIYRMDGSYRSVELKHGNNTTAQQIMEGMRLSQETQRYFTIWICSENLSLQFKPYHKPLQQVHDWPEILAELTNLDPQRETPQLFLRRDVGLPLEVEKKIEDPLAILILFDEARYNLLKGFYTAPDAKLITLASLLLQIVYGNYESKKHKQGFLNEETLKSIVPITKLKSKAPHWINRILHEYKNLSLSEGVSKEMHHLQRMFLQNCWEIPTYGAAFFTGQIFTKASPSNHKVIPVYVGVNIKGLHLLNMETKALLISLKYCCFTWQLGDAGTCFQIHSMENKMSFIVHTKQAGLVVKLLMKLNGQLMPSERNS
UniProt Q8K2Y9: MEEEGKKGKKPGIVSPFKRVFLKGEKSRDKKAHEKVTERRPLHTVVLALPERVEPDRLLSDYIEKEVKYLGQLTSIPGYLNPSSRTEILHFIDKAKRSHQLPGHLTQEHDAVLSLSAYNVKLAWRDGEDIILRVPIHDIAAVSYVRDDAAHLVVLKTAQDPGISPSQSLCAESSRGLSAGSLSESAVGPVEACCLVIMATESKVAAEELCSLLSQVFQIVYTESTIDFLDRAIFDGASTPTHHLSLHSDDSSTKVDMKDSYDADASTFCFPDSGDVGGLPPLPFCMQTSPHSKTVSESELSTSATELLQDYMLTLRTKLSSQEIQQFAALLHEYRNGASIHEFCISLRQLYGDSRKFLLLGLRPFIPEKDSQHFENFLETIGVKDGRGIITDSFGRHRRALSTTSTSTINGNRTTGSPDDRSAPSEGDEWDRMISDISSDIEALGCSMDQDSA

How the values were obtained:
[1] = target: Recombinant murine 6xHis-PDCD10 Δ5KA mutant (K169A, K172A, K179A, K183A, K186A) (mouse) (UniProt Q8VE70); experiment: pull-down; 10 µg His-tag recombinant WT or Δ5KA PDCD10 bound to CNBr-activated sepharose beads, incubated with 500 µg lysate of HEK293 cells transfected with FLAG-Krit1 and FLAG-OSM, 16 hours at 4°C, non-ionic detergent lysis buffer; immunoblot for FLAG and His; only the target purified
[2] = target: Recombinant murine 6xHis-PDCD10, wild type (mouse) (UniProt Q8VE70); experiment: as above

| binding [1] | binding [2] | Substance |
| --- | --- | --- |
| no binding | – | FLAG-tagged Krit1 (CCM1) (from UniProt Q6S5J6 1-736) |
| no binding | binds | FLAG-tagged OSM (CCM2) (from UniProt Q8K2Y9 1-453) |
